Assay results from PubChem BioAssay AID504467 (National Center for Advancing Translational Sciences (NCATS), 2011).
The campaign covered roughly 330,000 compounds. About 7,700 (2.3%) were called active. Inconclusive results, whose numbers are uncertain, are shown with a selection of clear calls. Calls come from the whole dose curve; as a rule, active = well fitted inhibition curve with a large enough effect; inconclusive = small, poorly fitted or top-dose-only effect, or effect the other way; inactive = flat fitted curve, though single readings scatter. Potencies of inconclusive entries are doubtful fits and often do not repeat.

Test: qHTS screen for small molecules that inhibit ELG1-dependent DNA repair in human embryonic kidney (HEK293T) cells expressing luciferase-tagged ELG1; note: nearly all actives have a fitted effect of over 55% in size
Details: HEK293T ELG1-luciferase reporter, luminescence, 16 h, DNA damage induced by 5-fluorouridine; series mostly up to 46.1 µM
Summary of the method: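 5-Fluorouridine DNA damage + compound/DMSO, 2,000 cells/well, 16 h, 37 °C/5% CO2. ONE-Glo, 30 min RT, luminescence. Readout = decrease in reporter signal.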
Potency is the fitted concentration of half-maximal effect.

| SMILES | Potency |
| --- | --- |
| c1csc(CNc2ncnc3ccc(-c4ccoc4)cc23)c1 | inconclusive: 0.164 µM [inhibitor, full curve, poor fit] |
| CCOc1ccc(/C=N/NC(=O)CC(=O)NCc2ccccc2)cc1 | inactive |
| CC1=C(C(=O)Nc2ccccc2F)C(c2ccsc2)C2=C(CC(c3ccccc3)CC2=O)N1 (stereo not given) | inconclusive: 12.6 µM [inhibitor, partial curve, poor fit] |
| CCCC(=O)Nc1ccc(Cc2ccc(NC(=O)CCC)c(C(=O)O)c2)cc1C(=O)O | inactive |
| O=C(NCc1cnn(-c2ccccc2)c1)C1CCC(=O)N(C2CC2)C1 (stereo not given) | inactive |
| CCOC(=O)/C(=C\c1ccccc1)C(=O)c1cc(C(C)=O)c(Nc2ccccc2)s1 | inconclusive: 29.1 µM [inhibitor, single point] |
| Cc1ccc(C)c(S(=O)(=O)N2CCCOC2CNC(=O)C(=O)NCc2ccccc2)c1 (stereo not given) | inconclusive: 5.8 µM [inhibitor, partial curve, poor fit] |
| O=[N+]([O-])c1cccc(-c2nc(NCc3ccccc3)c3ccccc3n2)c1 | inconclusive: 20.6 µM [inhibitor, single point] |
| O=C(Cn1c(=O)cnc2ccccc21)N1CCN(S(=O)(=O)c2cccc([N+](=O)[O-])c2)CC1 | inactive |
| COc1ccc(CCn2c(C)cc(C(=O)CSc3nc(N)cc(=O)[nH]3)c2C)cc1 | inconclusive: 11.6 µM [inhibitor, partial curve] |
| CCCCCCCCNC(CO)(CO)CO | inconclusive: 29.1 µM [activator, single point] |
| CC1(CCc2ccccc2)NC(=O)N(CC(=O)N2CC(=O)Nc3ccccc32)C1=O (stereo not given) | inactive |
| CS(=O)(=O)c1ccc2nc(NC(=O)CS(=O)(=O)Cc3ccccc3)sc2c1 | inactive |
| Cc1c(C)n(C)c2ccc(C(=O)NCCCN3CCCC3)cc12 | inconclusive: 23.1 µM [activator, single point] |
| Cc1ccc(N=Nc2ccc(O)c3ncccc23)cc1C | inconclusive: 4.61 µM [inhibitor, single point] |
| CCN(C(=O)Cn1c(=O)n(Cc2ccccc2)c(=O)c2ccccc21)c1cccc(C)c1 | inactive |
| COC(=O)C(CC(C)C)NC(=O)c1ccc(F)cc1 (stereo not given) | inconclusive: 0.116 µM [activator, full curve, poor fit] |
| Cc1cc(C)c2nc(NC(=O)c3ccco3)sc2c1 | inconclusive: 0.73 µM [activator, full curve] |
| CC(C)(C)OC(=O)[C@H](Cc1ccccc1)NC(=O)c1[nH]cnc1C(=O)Nc1ccc(Cl)cc1 | inconclusive: 20.6 µM [inhibitor, single point] |
| CCc1nc(N2CCC3(CC2)OCCO3)c2nnn(Cc3ccccc3Cl)c2n1 | inactive |
| FC(F)(F)c1ccncc1-c1nnnn1-c1ccc(Cl)cc1 | inconclusive: 25.9 µM [inhibitor, single point] |
| COc1ccc(C(=O)NCC(=O)NCC(c2ccco2)N(C)C)cc1OC (stereo not given) | inconclusive: 32.6 µM [activator, partial curve, poor fit] |
| CC(C)COC(=S)Nc1ccccc1 | inconclusive: 18.4 µM [activator, single point] |
| COc1ccccc1C(=O)Nc1ccc(S(=O)(=O)N2CCC(C)CC2)cc1 | inconclusive: 23.1 µM [inhibitor, single point] |

Structural class: the entries above with a thiophene ring, fused or not

| SMILES | Potency |
| --- | --- |
| c1csc(CNc2ncnc3ccc(-c4ccoc4)cc23)c1 | inconclusive: 0.164 µM [inhibitor, full curve, poor fit] |
| CC1=C(C(=O)Nc2ccccc2F)C(c2ccsc2)C2=C(CC(c3ccccc3)CC2=O)N1 (stereo not given) | inconclusive: 12.6 µM [inhibitor, partial curve, poor fit] |
| CCOC(=O)/C(=C\c1ccccc1)C(=O)c1cc(C(C)=O)c(Nc2ccccc2)s1 | inconclusive: 29.1 µM [inhibitor, single point] |

(further entries)

| SMILES | Potency |
| --- | --- |
| Fc1ccc(-c2csc(N3CCC(c4ccccc4)C3)n2)cc1 (stereo not given) | inconclusive: 10.3 µM [activator, partial curve] |
| CCN(c1ccccc1)S(=O)(=O)c1ccc(OC)c(NC(=O)C2CC(=O)N(Cc3ccccc3)C2)c1 (stereo not given) | inactive |
| Cc1cc(C)n(-c2nc(-c3ccc(Cl)cc3)cs2)n1 | inconclusive: 8.2 µM [activator, partial curve] |
| COc1ccc(OCC(=O)Nc2cc(C)c(Cl)cc2OC)c([N+](=O)[O-])c1 | inconclusive: 1.84 µM [activator, full curve, poor fit] |
| Cc1ccccc1-c1nc(-c2ccc(NC(=O)c3cccs3)cc2)no1 | inconclusive: 1.64 µM [activator, partial curve, poor fit] |
| CCCCN(C)C(=O)c1cc2cc3ccc(OC)cc3nc2o1 | inconclusive: 2.31 µM [activator, partial curve, poor fit] |
| CNc1nc(SC)nc(N(C)C#N)n1 | inactive |
| Cc1cccc(-c2nnn(C/C(N)=N/O)n2)c1 | inconclusive: 18.3 µM [inhibitor, partial curve, poor fit] |
| N#Cc1c(SCC(=O)Nc2nncs2)sc2c(O)cc(=O)[nH]c12 | inactive |
| CC(C)C(=O)Nc1nnc(SCc2cccc(F)c2)s1 | inactive |
| C=CCn1c(SCC(=O)c2ccc(O)c(O)c2)nnc1-c1ccc(C)cc1 | inactive |
| CC1=NN(C(=O)COc2ccccc2C)C(O)(c2ccc(Cl)cc2)C1 (stereo not given) | inactive |
| C#CCOc1c(Cl)cc(C2C3=C(CCCC3=O)N(CC(=O)O)C3=C2C(=O)CCC3)cc1OC | inactive |
| Cc1c(C)c2ccc(OCC(=O)NCCCN3CCCC3=O)cc2oc1=O | inconclusive: 20.6 µM [activator, single point] |
| CCOC(=O)C1=C(C)N=c2s/c(=C/c3ccco3)c(=O)n2C1c1cccc(OC)c1 (stereo not given) | inconclusive: 16.4 µM [inhibitor, partial curve, poor fit] |
| CN(C)c1ccc(/C=N/NC(=O)C(O)(c2ccccc2)c2ccccc2)o1 | inactive |
| CC1(c2nnc(-c3ccc(F)cc3)o2)CC(c2ccc(F)cc2)=NO1 (stereo not given) | inconclusive: 29.1 µM [inhibitor, single point] |
| O=C(/C=C/c1ccco1)Nc1ccc(C(=O)N2CCOCC2)cc1 | inconclusive: 18.4 µM [activator, single point] |
| Cc1[nH]c2ccccc2c1C(=O)C(C)Sc1nnc(C2CC2)o1 (stereo not given) | inactive |
| CC(=O)NCCC(=O)N1CCCC(CNC(=O)c2ccc(-c3ccccc3)cc2)C1 (stereo not given) | inconclusive: 25.9 µM [activator, single point] |
| Cc1nc(SCC(=O)N2CCOCC2)c2c3c(sc2n1)CCC3 | active: 20.6 µM |
| COc1ccc(CCN2C(=O)CSC2c2cccc([N+](=O)[O-])c2)cc1OC (stereo not given) | inactive |
| Cc1ccc(S(=O)(=O)NCc2csc(C)n2)cc1 | inactive |
| CCN(CC)c1ccc2c(C)c(CN3CCOCC3)c(=O)oc2c1 | inactive |

| SMILES | Potency |
| --- | --- |
| CCN1CCCC1CNC(=O)c1cc2c(-c3ccc(Cl)cc3)nn(C)c2s1 (stereo not given) | inactive |
| COc1ccccc1CNC(=O)c1oc2ccc(S(=O)(=O)N3CCOCC3)cc2c1C | inconclusive: 25.9 µM [inhibitor, partial curve, poor fit] |
| O=C(NC1=NCCS1)c1cccc(S(=O)(=O)N2CCc3ccccc32)c1 | inconclusive: 14.6 µM [inhibitor, single point] |
| O=C(OCC(=O)c1ccc(Cl)cc1Cl)c1ccccn1 | inconclusive: 4.11 µM [activator, single point] |
| CC(=O)N1CCc2c(sc(NC(=O)Cc3ccccc3)c2C#N)C1 | inconclusive: 18.3 µM [activator, partial curve] |
| Cc1ccc(CNC(=O)CSc2nc(C)cs2)cc1 | inconclusive: 0.164 µM [inhibitor, partial curve, poor fit] |
| Cc1ccc(S(=O)(=O)Nc2ccccc2CNc2ccccn2)cc1 | inconclusive: 18.4 µM [activator, single point] |
| COc1ccccc1C(=O)Nc1nsc(-c2ccccc2)n1 | inconclusive: 18.3 µM [activator, partial curve] |
| CCOC(=O)C1CCCN(C(=O)C2CCCN(S(=O)(=O)c3ccc4c(c3)oc(=O)n4C)C2)C1 (stereo not given) | inconclusive: 18.4 µM [inhibitor, partial curve] |
| C=CCc1cc(Cl)ccc1OCCCNCCO | inactive |
| COc1ccc(C(=O)Nn2cc3c(c2-c2ccccc2)c(=O)n(C)c(=O)n3C)cc1 | inactive |
| Cc1[nH]n(C(N)=S)c(=O)c1N=Nc1cccc([N+](=O)[O-])c1C | inconclusive: 20.6 µM [activator, single point] |
| CNC[C@@H]1Oc2ccc(NC(=O)Nc3cccc4ccccc34)cc2C(=O)N([C@@H](C)CO)C[C@@H]1C | inconclusive: 23.1 µM [activator, single point] |
| O=C(NCc1ccccc1C(F)(F)F)C1CC(c2ccccc2C(F)(F)F)=NO1 (stereo not given) | inconclusive: 1.16 µM [inhibitor, single point] |
| CCC(CC)c1nnc(NC(=O)C2CC(=O)N(C3CCCC3)C2)s1 (stereo not given) | inactive |
| COc1cc(CNCCO)ccc1OCCc1ccccc1 | inconclusive: 17.8 µM [activator, single point] |
| Cc1ccc2nc(SCn3nnc4ccccc4c3=O)[nH]c2c1 | inconclusive: 2.06 µM [activator, full curve] |
| CSc1ccc(/C=C/C(=O)NC23CC4CC(CC(C4)C2)C3)cc1 | inconclusive: 16.4 µM [activator, partial curve] |
| COc1ccc(C(=O)CNc2ccccc2CO)cc1 | inconclusive: 16.4 µM [activator, partial curve] |
| O=C(C(Cl)c1ccccc1)N1CCCC1 (stereo not given) | inconclusive: 23.1 µM [inhibitor, single point] |
| CN(C)/C=C1/C(=O)N(c2ccc([N+](=O)[O-])cc2)N=C1c1ccccc1 | inconclusive: 20.6 µM [activator, partial curve] |
| O=C(CN1c2cccc3cccc(c23)S1(=O)=O)Nc1cccc(S(=O)(=O)N2CCOCC2)c1 | inconclusive: 18.4 µM [inhibitor, single point] |
